Measurements published in article PMC7819943, “Rice protein-binding microarrays: a tool to detect cis-acting elements near promoter regions in rice”.
Some of the results follow.

Sequences of proteins named here, by UniProt entry; tags and fusion partners are left off.
UniProt Q0JBA9, entry or part of it: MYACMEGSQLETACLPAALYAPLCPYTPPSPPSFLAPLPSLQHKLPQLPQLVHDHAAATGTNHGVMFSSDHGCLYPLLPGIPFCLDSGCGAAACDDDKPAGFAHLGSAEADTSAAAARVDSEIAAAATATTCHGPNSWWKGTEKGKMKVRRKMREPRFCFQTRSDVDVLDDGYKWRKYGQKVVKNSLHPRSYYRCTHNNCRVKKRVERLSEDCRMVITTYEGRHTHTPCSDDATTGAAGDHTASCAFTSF

The sequences below were run against OsWRKY34 (Oryza sativa, UniProt Q0JBA9 1-250) (assay: protein-binding microarray (RPBM); PBS, 2% BSA, 51.3 ng/ul salmon testes DNA, 50 uM zinc acetate, 200 nM TF, 25 C, 1 h; high values mean tight binding). Conditions: protein: recombinant; tags: N-terminal polyhistidine and DsRed monomer fusion (pET32a); label: CyDye5-dUTP incorporated in the synthesized complementary strand; 3' TTTTT single-stranded linker to array surface; dsDNA, one strand shown.
Summary of the method: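 The binding signal is fluorescence intensity per feature, in arbitrary units, read on an Axon 4000B scanner. Polyhistidine- and DsRed-tagged transcription factors (N-terminal fusions) from E. coli BL21-CodonPlus were purified on Ni–NTA and applied at 200 nM for 1 h at 25 °C to a double-stranded, BSA-blocked custom Agilent array in buffer with 50 µM zinc acetate.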

Q: For “TTTGGGTTGTGCTTAGGTTTCCTTCTCGGGCTTTGTTGTACGGAGTCACCTAGTGCAG”, which binding signal is on record?
A: 18700 fluorescence intensity (a.u.)

Q: “GTTATTATTTTTCCTATCTGCATTTAAGCAATTCTATTATCGGAGTCACCTAGTGCAG” was tested. Which binding signal did it give?
A: 9510 fluorescence intensity (a.u.)

Q: How did the binding signal turn out when “CCTCTGCTTCGTTTCCTTCTCCAGCAAGCACCCGACCACACGGAGTCACCTAGTGCAG” was run?
A: 9190 fluorescence intensity (a.u.)

Q: Which binding signal does the source give for “GCTATAGATCGATCTTCTAGTTGACCACTTCAGAAACATCCGGAGTCACCTAGTGCAG” here?
A: 8640 fluorescence intensity (a.u.)

Q: “TGCATTTTTTTTCTCTAAGTATTACTATACACCGGTCATCCGGAGTCACCTAGTGCAG” was tested. Which binding signal did it give?
A: 8080 fluorescence intensity (a.u.)

Q: With “ATGAACTTCTTCTGAAATTTTGCTGGTATTTCCTTTTGAACGGAGTCACCTAGTGCAG” as the sequence, how does the binding signal read?
A: 8670 fluorescence intensity (a.u.)

Q: “ATCGGGTTGGTCAGTTGTTTGCCATGGTGATTACGAAATTCGGAGTCACCTAGTGCAG” was tested. Which binding signal did it give?
A: 14200 fluorescence intensity (a.u.)

Q: How did the binding signal turn out when “TTTGGCCCGCACACACCAACCTGTCCTGTCCTGCCGTCCTCGGAGTCACCTAGTGCAG” was run?
A: 9500 fluorescence intensity (a.u.)

Q: Which binding signal does the source give for “TTTGCTTAGTGGTGTGTTTGCTGGGCTATAAAAGTCATATCGGAGTCACCTAGTGCAG” here?
A: 10600 fluorescence intensity (a.u.)

Q: With “CATCAACTTCTTCCCAATCAGCCGCTTCTACTACTACTAACGGAGTCACCTAGTGCAG” as the sequence, how does the binding signal read?
A: 8300 fluorescence intensity (a.u.)

Q: How did the binding signal turn out when “AGGCGTGTATGTAGTTGAACTGTTTTGCTTTTGCCTGCCTCGGAGTCACCTAGTGCAG” was run?
A: 11800 fluorescence intensity (a.u.)

Q: For “TTCCACCTCGCGCGCGACCCACTAGCTACCAGCCTTCTACCGGAGTCACCTAGTGCAG”, which binding signal is on record?
A: 13600 fluorescence intensity (a.u.)

Q: For “CTCGCCCTCCGCCGCGCGCTCCCGTACTACAATGACGCCGCGGAGTCACCTAGTGCAG”, which binding signal is on record?
A: 8610 fluorescence intensity (a.u.)

Q: For “AGTTTTGTTTGTGATGAGTTTGAGTTGTGACTGGGCTTCTCGGAGTCACCTAGTGCAG”, which binding signal is on record?
A: 9290 fluorescence intensity (a.u.)

Q: How did the binding signal turn out when “TGTGCTAAAAAAGTCAACGGTGTCAAATATTTCGAAACGGCGGAGTCACCTAGTGCAG” was run?
A: 14700 fluorescence intensity (a.u.)

Q: With “CTTCATTACCTTGCTTTTGTAGTTTCTCCTGTCTACATTCCGGAGTCACCTAGTGCAG” as the sequence, how does the binding signal read?
A: 10700 fluorescence intensity (a.u.)

Q: For “CTCAGGCATGTTCCTCGTACTTCTACATTATTATTTATTTCGGAGTCACCTAGTGCAG”, which binding signal is on record?
A: 8850 fluorescence intensity (a.u.)

Q: Which binding signal does the source give for “GGCTCTAACTCTGGAACACACGCACATCTCTTTTTCGGGACGGAGTCACCTAGTGCAG” here?
A: 9700 fluorescence intensity (a.u.)

Q: For “AGATTCGTGTAGACCCATTGTCTGGCAGCGGCGATCGTCCCGGAGTCACCTAGTGCAG”, which binding signal is on record?
A: 8040 fluorescence intensity (a.u.)

Q: How did the binding signal turn out when “CTCTGTATCTGTGACCATCTCGCTTCGTCATCTCGTCGTCCGGAGTCACCTAGTGCAG” was run?
A: 10500 fluorescence intensity (a.u.)

Q: For “CCCAGCTTCTCCAGGTTCTAGCTTCTTAGTTCATTTTTCACGGAGTCACCTAGTGCAG”, which binding signal is on record?
A: 9670 fluorescence intensity (a.u.)

Q: “GGATGTGGTTGGCTGGTTTTCATTCGCACTGTATATATATCGGAGTCACCTAGTGCAG” was tested. Which binding signal did it give?
A: 11600 fluorescence intensity (a.u.)

Q: “CGCCACTGCCCTTTCCCCATCGCGCCTGCTGGACCCGACGCGGAGTCACCTAGTGCAG” was tested. Which binding signal did it give?
A: 8090 fluorescence intensity (a.u.)

Q: With “TGTATCAGTATCAGAATTTACAATCCTTCGCGTGAAATTTCGGAGTCACCTAGTGCAG” as the sequence, how does the binding signal read?
A: 8880 fluorescence intensity (a.u.)

Q: Which binding signal does the source give for “ATGCACAGGTGAGTAGATTTGGTTCCCCAACCTCCGCTTCCGGAGTCACCTAGTGCAG” here?
A: 10100 fluorescence intensity (a.u.)

Q: “AATTGTCAGCGCCGTGTTGTTTGTAAGTACTCAAAATTTCCGGAGTCACCTAGTGCAG” was tested. Which binding signal did it give?
A: 11200 fluorescence intensity (a.u.)

Q: “CGTCCATCTCCTTCTCCGCGCGGTGGTTTGACTGCTTTGACGGAGTCACCTAGTGCAG” was tested. Which binding signal did it give?
A: 10500 fluorescence intensity (a.u.)

Q: How did the binding signal turn out when “GTTTGTTTGTTTTTCTGCGCGCACGCTTCCCGAACTACTACGGAGTCACCTAGTGCAG” was run?
A: 12100 fluorescence intensity (a.u.)

Q: With “CGATGTTTGAACACCCTGTTATTGCGCTCTTTCCAAATTGCGGAGTCACCTAGTGCAG” as the sequence, how does the binding signal read?
A: 8080 fluorescence intensity (a.u.)

Q: Which binding signal does the source give for “ATTTTTATTCTTTTTTCCCGTCCCTATTTTTTATTCATATCGGAGTCACCTAGTGCAG” here?
A: 11000 fluorescence intensity (a.u.)

Q: How did the binding signal turn out when “ACCCCACAGGTTTAAATTCCTGGCTCCGCCACTGATGCACCGGAGTCACCTAGTGCAG” was run?
A: 8470 fluorescence intensity (a.u.)

Q: Which binding signal does the source give for “GATTCCCTTCTTTTCTTTGGTTGATTTCTTTCTGTATTTCCGGAGTCACCTAGTGCAG” here?
A: 8280 fluorescence intensity (a.u.)

Q: With “TATAGGCAGTCCCTTTTTTTATTTCTAATGCCACGTTAACCGGAGTCACCTAGTGCAG” as the sequence, how does the binding signal read?
A: 10900 fluorescence intensity (a.u.)

Q: For “CATTACATTTGACTCTAATTCCACTACATCATTAGAGTATCGGAGTCACCTAGTGCAG”, which binding signal is on record?
A: 9550 fluorescence intensity (a.u.)

Q: With “GTGATATGACATGGTTGTTCCATCGACGTGGTATACTATTCGGAGTCACCTAGTGCAG” as the sequence, how does the binding signal read?
A: 8090 fluorescence intensity (a.u.)

Q: For “CGCCGCCGCATCCTCCTCCTCGCGCCTCTCGCTATCCATGCGGAGTCACCTAGTGCAG”, which binding signal is on record?
A: 8180 fluorescence intensity (a.u.)

Q: With “GTAACTATTGGTTCCTAATATCGGCCCAATCAATTGCGTTCGGAGTCACCTAGTGCAG” as the sequence, how does the binding signal read?
A: 9780 fluorescence intensity (a.u.)

Q: For “GTCCTGGTGTTCCGATCGATCGACGTGGTGTACATGCATCCGGAGTCACCTAGTGCAG”, which binding signal is on record?
A: 8330 fluorescence intensity (a.u.)

Q: Which binding signal does the source give for “TGTTGTTGTGGTGGTGGTGGTGGTGGTAGTGCGTGAGTGACGGAGTCACCTAGTGCAG” here?
A: 21200 fluorescence intensity (a.u.)

Q: How did the binding signal turn out when “CAAAAAAAATTACCGGTTCGTTTCCTTTGTTTATGTAGCCCGGAGTCACCTAGTGCAG” was run?
A: 8300 fluorescence intensity (a.u.)

Q: Which binding signal does the source give for “AATCTCGTTCCTTGCTGTTGTGACTAGTATCGTTGCCTACCGGAGTCACCTAGTGCAG” here?
A: 10500 fluorescence intensity (a.u.)

Q: How did the binding signal turn out when “GGGTTTTTGGTTTTGGTTTTGATTTTGATTTTGATTTTGACGGAGTCACCTAGTGCAG” was run?
A: 16400 fluorescence intensity (a.u.)

Q: Which binding signal does the source give for “TTCTCCTATCTTCAACATTTGCTTTGTTACGTTTTTGACTCGGAGTCACCTAGTGCAG” here?
A: 9560 fluorescence intensity (a.u.)

Q: For “GCTTTGCACTCTCCGCGCCCCTCCTGTGTCTTCACGCTTTCGGAGTCACCTAGTGCAG”, which binding signal is on record?
A: 9370 fluorescence intensity (a.u.)

Q: “AGCTGGTTGGTTGCATGAGACTATTGAAATTCCTAGCGATCGGAGTCACCTAGTGCAG” was tested. Which binding signal did it give?
A: 8850 fluorescence intensity (a.u.)

Q: Which binding signal does the source give for “TCGCGTCGCTGGCCGCCACCGCCGGACCTCCCCGTGACTCCGGAGTCACCTAGTGCAG” here?
A: 8680 fluorescence intensity (a.u.)

Q: Which binding signal does the source give for “CCGTCCATCCGCCAACTCATCCAATCTCATCCGTCCATCGCGGAGTCACCTAGTGCAG” here?
A: 13900 fluorescence intensity (a.u.)

Q: “GCATTCTCATGCCTATCTAATCATAATTTTCTGTTTCATACGGAGTCACCTAGTGCAG” was tested. Which binding signal did it give?
A: 8800 fluorescence intensity (a.u.)

Q: How did the binding signal turn out when “CCAATTCGCCATCCGTCTGTCGACCGCATCTTAATATCCGCGGAGTCACCTAGTGCAG” was run?
A: 17400 fluorescence intensity (a.u.)

Q: With “GTCTCCAAAATGTGTTTCCAGGGCCCTCGTTGCTCTTTTACGGAGTCACCTAGTGCAG” as the sequence, how does the binding signal read?
A: 12100 fluorescence intensity (a.u.)

Q: How did the binding signal turn out when “GCTGTTCTTCTTGTCGTCTGTTCTAGCCCATTCTCCGCTGCGGAGTCACCTAGTGCAG” was run?
A: 14300 fluorescence intensity (a.u.)

Q: “ACGTGTCCATTGTTTTTTTTTTTTTGCCAGTGAAAATTCGCGGAGTCACCTAGTGCAG” was tested. Which binding signal did it give?
A: 11000 fluorescence intensity (a.u.)

Q: “TAAAAAGTCAACGGTGTCAAACATTTCGAAACGGAGGGAGCGGAGTCACCTAGTGCAG” was tested. Which binding signal did it give?
A: 8970 fluorescence intensity (a.u.)

Q: Which binding signal does the source give for “CCGTGCAGCTCTCACTTGATCATCTTATCGCTACTCAGCCCGGAGTCACCTAGTGCAG” here?
A: 10100 fluorescence intensity (a.u.)
